Changes are numbered by the printed parent chain. Results are given in words; binding and its absence hold for the method and conditions named. Some entries that bind do so weakly or less than the wild type.
T1: CD84 (antigen used for phage panning and ELISA) (human) (UniProt Q9UIB8)
T1 sequence (looked up): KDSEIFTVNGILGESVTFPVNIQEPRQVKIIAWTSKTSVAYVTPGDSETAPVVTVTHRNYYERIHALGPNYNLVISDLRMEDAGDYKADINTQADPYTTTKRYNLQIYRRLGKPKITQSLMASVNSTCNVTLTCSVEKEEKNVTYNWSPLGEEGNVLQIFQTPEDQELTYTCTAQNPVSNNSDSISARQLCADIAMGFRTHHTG

Protein sequences, listed by entry. Tags and fused reporters are not part of them. Residues count along the entry.
UniProt Q07108, residues 62-199: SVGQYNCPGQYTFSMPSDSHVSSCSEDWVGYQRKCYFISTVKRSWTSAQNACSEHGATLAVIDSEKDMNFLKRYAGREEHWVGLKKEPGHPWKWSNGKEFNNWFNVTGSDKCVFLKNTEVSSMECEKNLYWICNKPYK

B1: A1 scFv (scFv)
scFv: QVQLQQSGPGLVQPSRTLSLTCAISGDSISSNTASWNWIRQSPSRGLEWVGKTEYRSGWFFEYAPSVGGRVNISPDTSKNQFSLQLNSVTPEDTAVYFCARDSYNDYDNDGFDIWGQGTLVTVSSGGGGSGGGGSGGGGSGGGGSQSVLTQPPSVSAAPGQKVTISCSGSSSNIGSNYVAWYQQLPGTAPKLLIYDTNKRPSGIPDRFSGSKSGTSATLGITGLQTGDEADYYCGTWDSSLSAEVFGTGTKVTVL
B2: 14722-P1-B8 scFv (scFv)
scFv: QVQLQQSGPGLVKPSQTLSLTCAISGDSVSSNSASWNWIRQSPSRGLEWLGKVEYRSKWYDEYAPSVKSRIAIRPDTSKNQVSLHLISVTPDDTAVYYCARDSYNGHAFDGFDVWGQGTMVTVSSGGGGSGGGGSGGGGSGGGGSQSVLTQPPSLSAAPGQRVTISCSGTTSNIANNFVSWYQQLSGSAPKLLINDNNKRPSGIPDRFSGSKSGASATLAITGLQTEDEADYYCGVWDNSLNAEVFGGGTKVTVL
B3: 14722-P1-F12 scFv (scFv)
scFv: QVQLQQSGPGLVKPSQTLSLTCAISGDSVSSNSASWNWIRQSPSRGLEWLGKVEYRSKWYDEYAPSVKSRIAIRPDTSKNQVSLHLISVTPDDTAVYYCARDSYNGHAFDGFDVWGQGTMVTVSSGGGGSGGGGSGGGGSGGGGSQSVVTQPPSVSAAPGQKVTISCSGSSSNIGNNYVSWYQQLPGTAPKLLIYDNNKRPSGIPDRFSGSKSGTSATLGITGLQTGDEADYYCGTWDSSLSAEVFGGGTKVTVL
B4: 14721-P1-H3 scFv (scFv)
scFv: QVQLQQSGPGLVKPSQTLSLTCDISGDSVFSNTASWNWIRQSPSRGLEWLGKTEYRSQWLHEYAPSVRSRIAIRPDTSKNQVSLQLSFVTPEDTAVYYCVRDSYNGYAFDGFDTWGQGTLVTVSSGGGGSGGGGSGGGGSGGGGSQSVVTQPPSVSAAPGQKVTISCSGRNSNIANNFVSWYRQLPGTAPKLLIYDNNKRPSGIPDRFSGSKSGTSATLAITGLQTGDEADYYCESWDSSLTAEVFGTGTKVTVL
B5: 14721-P1-G1 scFv (scFv)
scFv: QVQLQQSGPGLVKPSQTLSLTCAISGDSVFSTTASWNWIRQSPSRGLEWLGKTEYRSKWFDEYAPSVKGRIAIRPDTSRNQVSLQLNSMTPEDTAVYFCVRDSYNGYDFDGFDIWGQGTTVTVSSGGGGSGGGGSGGGGSGGGGSQSVVTQPPSVSAAPGQKVTISCSGSSSNIGNNYVSWYQQLPGTAPKLLIYDNNKRPSGIPDRFSGSKSGTSATLGITGLQTGDEADYYCGTWDSSLSAEMFGGGTKVTVL
B6: C1 scFv (scFv)
scFv: QVQLQQSGPGLVKPSQTLSLTCAISGDSVSSNSASWNWIRQSPSRGLEWLGKTEYRSKWYYEFAPSVKSRITITPDTSKNQFSLQLNSVTPEDTAVYYCVRDSYNGYDFDGFDIWGQGTLVTVSSGGGGSGGGGSGGGGSGGGGSQSVLTQPPSVSAAPGQKVTISCSGSSSNIGSNYVAWYQQLPGTAPKLLIYDTNKRPSGIPDRFSGSKSGTSATLGITGLQTGDEADYYCGTWDSSLSAEVFGTGTKVTVL
B7: F1 scFv (scFv)
scFv: QVQLQQSGPGLVKPSQTLSLTCAISGDSVFSNSASWNWIRQSPSRGLEWLGKTEYRSKWFDEYAPSVKGRIAIRPDTSKNQVSLQLNSVTPEDTAVYYCVRDSYNGYDFDGFDIWGQGTLVTVSSGGGGSGGGGSGGGGSGGGGSQSVLTQPPSVSAAPGQQVIISCSGSSSNVGNNYVAWYQQVPGAAPRLLIYDNYKRPSGIPDRFSGSKSGTSATLGITGLQSGDEADYYCGSWDSSLSAEVFGGGTKLTAL
B8: C2 scFv (scFv)
scFv: QVQLQQSGPGLVKPSQTLSLTCAISGDSVSSNSASWNWIRQSPSRGLEWLGKVEYRSKWYDEYAPSVKSRIAIRPDTSKNQVSLHLISVTPDDTAVYYCARDSYNGHAFDGFDVWGQGTLVTVSSGGGGSGGGGSGGGGSGGGGSQSVLTQPPSVSAAPGQKVTISCSGSSSNIGDNLVSWYQQLPGTAPKLLIYDNNKRPSGIPDRFSGSKSGTSATLDITGLQTGDEADYYCESWDNNLTAEVFGTGTKVTVL
B9: F2 scFv (scFv)
scFv: QVQLQQSGPGLVKPSQTLSLTCAISGDSVFSNSASWNWIRQSPSRGLEWLGKTEYRSKWFDEYAPSVKGRIAIRPDTSKNQVSLQLNSVTPEDTAVYYCVRDSYNGYDFDGFDIWGQGTLVTVSSGGGGSGGGGSGGGGSGGGGSQSVLTQPPSVSAAPGQKVTISCSGGSSNIEKNYVSWYQQLPGTAPKLLIYDTNKRPSGIPDRFSGSKSGTSATLGITGLQTGDEADYYCGAWDNILNSEMFGGGTKLTVL
B10: H2 scFv (scFv)
scFv: B5 scFv with T32N, T33S, R79K, M89V, F98Y, T120L, M245V, V252L

Legend:
[1] = biological target: CD69 (antigen used for phage panning and ELISA) (human) (UniProt Q07108); test: ELISA validation of phage display clones
[2] = biological target: T1, CD84 (antigen used for phage panning and ELISA) (human); test: ELISA validation of phage display clones
[3] = biological target: T1, CD84 (antigen used for phage panning and ELISA) (human); test: specific scFvs identified within a human naive phage library
[4] = biological target: CD69 (antigen used for phage panning and ELISA) (human) (UniProt Q07108); test: as above

Row | Binder | binding [1] | binding [2] | binding [3] | binding [4]
1 | B1 | binds | – | – | –
2 | B2 | – | binds | binds | –
3 | B3 | – | binds | binds | –
4 | B4 | binds | – | – | binds
5 | B5 | binds | – | – | binds
6 | B6 | binds | – | – | –
7 | B7 | binds | – | – | –
8 | B8 | binds | – | – | –
9 | B9 | binds | – | – | –
10 | B10 | binds | – | – | –

Reference: US20240180963A1
